Record: PubChem BioAssay AID1259254 (NCATS, 2017)
Test: 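Finding genes that stop cells copying their DNA twice in one cycle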 (primary screen). Cells: human HCT116 colorectal cancer cells. Knock-down reagent: single siRNA against human genes. Duration: 3 days. Measured: 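Imaged Hoechst DNA stain sorts each cell into a cycle phase by DNA amount; per plate, G2 fraction set to 0% for non-targeting and 100% for GMNN siRNA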. Direction: G2 robust z-score and G2 cells, % of GMNN control: higher = more G2 cells, more excess DNA replication. Rule for the call: 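An siRNA counts as active if its G2 robust z-score lies at least 5 MADs above the screen median; here such calls match roughly 38% of GMNN control or more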.
The whole screen tested about 59,000 reagents; shown is an unselected part. Over the whole deposit, about 1,550 (2.6%) were called active. 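G2 share is only a proxy for re-replication; each gene was hit by three separate siRNAs, and active genes were retested.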 Entries without a mark were called inactive. Reagents against one gene are numbered here. Further read-outs or replicates are left out here. No sequences are given here. Not stated in the record: the amount of reagent.

The opening 2 records, ahead of the listing:
gene knocked down	reagent no.	G2 robust z-score	G2 cells, % of GMNN control
ZDHHC21 (GeneID 340481)	1	0.148	4.01
ZDHHC21 (GeneID 340481)	2	-0.754	-2.34

The listing, repeating the preview:
gene knocked down	reagent no.	G2 robust z-score	G2 cells, % of GMNN control
ZDHHC21 (GeneID 340481)	1	0.148	4.01
ZDHHC21 (GeneID 340481)	2	-0.754	-2.34
ZDHHC21 (GeneID 340481)	3	1.21	11.5
RPL7L1P5 (GeneID 390800)	1	0.589	7.11
RPL7L1P5 (GeneID 390800)	2	-0.83	-2.87
RPL7L1P5 (GeneID 390800)	3	2.87	23.2
SIRT2 (GeneID 22933)	1	-0.152	1.9
SIRT2 (GeneID 22933)	2	0.378	5.63
SIRT2 (GeneID 22933)	3	-1.17	-5.27
PLP2 (GeneID 5355)	1	-0.171	1.76
PLP2 (GeneID 5355)	2	-0.296	0.882
PLP2 (GeneID 5355)	3	-0.38	0.297
DNTTIP1 (GeneID 116092)	1	-0.522	-0.703
DNTTIP1 (GeneID 116092)	2	2.81	22.8
DNTTIP1 (GeneID 116092)	3	0.676	7.72
HOXD13 (GeneID 3239)	1	-0.53	-0.762
HOXD13 (GeneID 3239)	2	-0.826	-2.84
HOXD13 (GeneID 3239)	3	1.81	15.7
EVI2B (GeneID 2124)	1	-0.128	2.07
EVI2B (GeneID 2124)	2	0.624	7.36
EVI2B (GeneID 2124)	3	2.1	17.7
HSD3B7 (GeneID 80270)	1	-0.108	2.21
HSD3B7 (GeneID 80270)	2	2.22	18.6
HSD3B7 (GeneID 80270)	3	-1.61	-8.36
SIGLEC11 (GeneID 114132)	1	-0.774	-2.48
SIGLEC11 (GeneID 114132)	2	-1.26	-5.93
SIGLEC11 (GeneID 114132)	3	5.3 (active)	40.3
VCF1 (GeneID 84923)	1	4.12	32
VCF1 (GeneID 84923)	2	0.764	8.34
VCF1 (GeneID 84923)	3	0.484	6.37
IQCJ (GeneID 654502)	1	0.828	8.79
IQCJ (GeneID 654502)	2	1.25	11.8
IQCJ (GeneID 654502)	3	-0.316	0.747
ZNF883 (GeneID 169834)	1	0.0157	3.08
ZNF883 (GeneID 169834)	2	-0.556	-0.943
ZNF883 (GeneID 169834)	3	0.183	4.25
OFCC1 (GeneID 266553)	1	-1.08	-4.61
OFCC1 (GeneID 266553)	2	-0.889	-3.29
OFCC1 (GeneID 266553)	3	-0.424	-0.0181
KICS2 (GeneID 144577)	1	6.36 (active)	47.7
KICS2 (GeneID 144577)	2	-0.696	-1.93
KICS2 (GeneID 144577)	3	-0.39	0.222
TJAP1 (GeneID 93643)	1	-0.115	2.16
TJAP1 (GeneID 93643)	2	0.818	8.73
TJAP1 (GeneID 93643)	3	-1.07	-4.56
TICAM2 (GeneID 353376)	1	-0.923	-3.53
TICAM2 (GeneID 353376)	2	5.3 (active)	40.3
TICAM2 (GeneID 353376)	3	-1.01	-4.12
